Where a chain is given by its changes, count along the chain named. In names and notes the source's numbering stands. No constants are given. Whether binding was seen depends on the method and setting. For part of these data: In cells and extracts the contact can be indirect. Some entries that bind do so weakly or less than the wild type. Sequences can lack the tags named with a protein. One block for each binder: values may come before it.
How the values were obtained:
[1] = biological target: T1, MBP-BRCA2 Ex14-Tr (human); test: pull-down; amylose pull-down after recombinant co-expression of the recombinase with MBP-BRCA2 fragments in E. coli
T1 sequence: RPTKVFVPPFKTKS

[2] = biological target: His-DMC1 ΔN F85E mutant (human) (UniProt Q14565); test: SEC-MALS; Superdex 200 Increase 10/300 GL, 20 mM Tris pH 8.0, 500 mM KCl, 10 % glycerol, 2 mM DTT; both purified
[3] = biological target: T1, MBP-BRCA2 Ex14-Tr (human); test: pull-down; lysates of bacterial cultures expressing His6-DMC1 ΔN mutants or MBP-BRCA2 constructs mixed; amylose affinity in 20 mM Tris pH 8.0, 500 mM KCl, 2 mM DTT; eluted with 30 mM D-maltose

binding [1]: binds
B1: DMC1 ΔN co-expressed with MBP-BRCA2 fragments (domain or fragment, UniProt Q14565 83-340)
chain: PGFLTAFEYSEKRKMVFHITTGSQEFDKLLGGGIESMAITEAFGEFRTGKTQLSHTLCVTAQLPGAGGYPGGKIIFIDTENTFRPDRLRDIADRFNVDHDAVLDNVLYARAYTSEHQMELLDYVAAKFHEEAGIFKLLIIDSIMALFRVDFSGRGELAERQQKLAQMLSRLQKISEEYNVAVFVTNQMTADPGATMTFQADPKKPIGGHILAHASTTRISLRKGRGELRIAKIYDSPEMPENEATFAITAGGIGDAKE

binding [2]: no binding
binding [3]: no binding
B2: His-DMC1 ΔN F85E mutant (domain or fragment, UniProt Q14565 83-340)
chain: B1 chain with F3E
